# According to patent US20230263787A1, “ENHANCED MITOCHONDRIAL RESPONSE WITH THIOZOLIDINEDIONE, PIOGLITAZONE OR ROSIGLITAZONE” (priority 2020, published 2023):
# For at least one compound, name, drawing or mass did not settle the structure.
# Experiments:
# PGC1a = PGC1a immunolabelling of human iPSC derived motor neurons; type: cell-based; conditions: pioglitazone 2microM
# [1] = test system: cerebellar slice cultures; test: Lysolecithin-demyelinated cerebellar slice cultures: axon bulbs and axonal mitochondrial content; type: cell-based, mouse
# DRG neurons [2] = test: Seahorse analysis of mitochondrial respiration in DRG neurons; conditions: SA 100 µM for 16 hours
# DRG neurons [3] = test: Lysosomal trafficking (LysoTracker) in unmyelinated DRG neurons; type: cell-based, mouse; conditions: unmyelinated axons, pioglitazone added 6 days before imaging
# wild type mice = test: Focal lysolecithin demyelination of spinal cord dorsal columns in wild type mice; type: in vivo, mouse
# DRG-OPC co-cultures = test: Axon damage after lysolecithin demyelination in microfluidic chambers, drug applied to neuronal cell body chamber; type: cell-based, mouse; conditions: 2 µM pioglitazone to cell body chamber for 6 days before lysolecithin
# Description: Before adding lysolecithin to microfluidic chambers, the inventors used an Axio Observer Z1 inverted motorized microscope (Zeiss, Germany), for live imaging to identify the myelinated axonal segments (video 11, online resource). Images of the myelinated axonal segments were saved with x-y coordinates of the stage position. The effect of live imaging on the axons and myelin was determined by imaging microfluidic chamber containing both mKate2 expressing DRGs and eGFP-expressing OPC where imaged at 20x magnification (Plan-Apochromat 0.8 NA Ph 2 M27 objective, Zeiss, Germany) for 30 minutes before returning the microfluidic chambers to the incubator.
# The inventors then added lysolecithin for 2 hours before live imaging the previously imaged axonal segments again, using the x-y co-ordinate of the stage position. These live images of axons, pre and post lysolecithin, allowed the assessment of the demyelination of the axonal segments (based on M1-M4-eGFP fluorescence) as well as axonal damage following acute demyelination (based on appearance of mKate2 fluorescence). […] Meanwhile, axons were classed as fragmented when the mKate2 fluorescence was disrupted and not continuous in at least one part of the axon. […] Following exposure to lysolecithin, demyelination was confirmed based on disruption or loss of M1-M4-eGFP fluorescence. […]
# DRG neurons [4] = test: Live imaging of mEOS2-labelled mitochondria moving from cell body to proximal axon in unmyelinated DRG neurons; type: cell-based, mouse; conditions: 2 µM pioglitazone, unmyelinated axons
# [5] = test system: DRG neurons co-cultured with OPCs; test: Mitochondrial content of myelinated axons in DRG neuron/OPC co-cultures; type: cell-based, mouse; conditions: in vitro, pioglitazone
# DRG neurons [6] = test: Live imaging of mitochondrial mobilisation in complex IV deficient (sodium azide treated) DRG neurons; type: cell-based, mouse; conditions: SA 100 µM for 16 hours
# [7] = test system: dorsal column nuclei (DCN) synaptoneurosomes; test: AMPA-evoked Ca2+ fluorescence responses of dorsal column nuclei synaptoneurosomes; type: in vivo, mouse; conditions: COX10Adv mutant mice with dorsal column demyelination, dietary pioglitazone 6 weeks beforehand
# sciatic nerve axons = test: Focal demyelination of the mouse sciatic nerve; type: in vivo; conditions: 8 days post focal lesioning; for extent of axonal injury (axonal bulbs) in sciatic nerve lesions: pioglitazone in diet
smiles,measurement,setting,value
CCc1ccc(CCOc2ccc(CC3SC(=O)NC3=O)cc2)nc1 (centres unmarked) [pioglitazone],PGC1a labelling of motor neuronal nuclei,PGC1a,intense labeling of PGC1a
same,extent of axon bulb formation,"[1]; 40 µM pioglitazone before lysolecithin (0.5 mg/ml, 17 hours), vs DMSO only",significantly decreased
same,mitochondrial content of myelinated axons,"[1]; 40 µM pioglitazone, no lysolecithin, vs untreated slices",significantly increased
same,decrease of mitochondrial respiration by SA in pioglitazone treated DRG neurons,DRG neurons [2],not statistically significant
same,anterograde and retrograde transport of lysosomes,DRG neurons [3],did not significantly alter
same,mitochondrial content of both myelinated and demyelinated axons,"wild type mice; dietary pioglitazone, wild type mice, vs control",significantly increased
same,axon bulb formation,"wild type mice; pioglitazone in diet 6 weeks (120 mg/Kg diet) before demyelination, 3 days post lesioning, vs chow diet",significantly decreased
same,percentage of DRG neurons with PGC1-alpha positive nuclei,"wild type mice; pioglitazone in diet 6 weeks, not demyelinated, vs chow diet",significantly increases
same,PGC1-alpha positive DRG neuronal nuclei,wild type mice; pioglitazone treated and demyelinated vs untreated and demyelinated wild type mice,further increases
same,demyelinated axons that remain intact,DRG-OPC co-cultures,significant increase
same,proportion of demyelinated axons that are fragmented,DRG-OPC co-cultures,significant decrease
same,size of the anterograde moving mitochondria,DRG neurons [4],remained unchanged
same,size of the stationary mitochondria,DRG neurons [4],significantly increase
same,speed of anterograde moving mitochondria,DRG neurons [4],significantly greater
same,total axonal mitochondrial content,DRG neurons [4],significantly increase
same,number of mitochondria mobilising from the DRG neuronal cell body to the proximal axon segment,DRG neurons [4]; vs untreated DRG neurons,significant increase
same,axonal mitochondrial content within myelinated axons,[5],significantly increase
same,effect of SA on anterograde movement of mitochondria from cell body to axon in pioglitazone treated DRG neurons,DRG neurons [6],does not significantly decrease
same,Ca2+ fluorescence responses evoked by AMPA (40 µM) with cyclothiazide (20 µM),[7],fully rescued the functional deficits
same,extent of axonal injury (axonal bulbs) in sciatic nerve lesions,"sciatic nerve axons; complex IV mutant mice, p=0.0007",significant decrease
same,axonal mitochondrial content in demyelinated axons,sciatic nerve axons; pioglitazone treatment,tended to increase
same,axonal mitochondrial content in non-demyelinated axons,sciatic nerve axons; pioglitazone treatment,significantly increased
same,extent of axonal injury (axonal bulbs) in sciatic nerve lesions,"sciatic nerve axons; wild type mice, p= 0.0083",significant decrease
